The assay has as its target T1, Hypermethylated in cancer 1 (HIC1) (human (endogenous in MKN45 and HGC27)) (UniProt Q14526).
T1 sequence: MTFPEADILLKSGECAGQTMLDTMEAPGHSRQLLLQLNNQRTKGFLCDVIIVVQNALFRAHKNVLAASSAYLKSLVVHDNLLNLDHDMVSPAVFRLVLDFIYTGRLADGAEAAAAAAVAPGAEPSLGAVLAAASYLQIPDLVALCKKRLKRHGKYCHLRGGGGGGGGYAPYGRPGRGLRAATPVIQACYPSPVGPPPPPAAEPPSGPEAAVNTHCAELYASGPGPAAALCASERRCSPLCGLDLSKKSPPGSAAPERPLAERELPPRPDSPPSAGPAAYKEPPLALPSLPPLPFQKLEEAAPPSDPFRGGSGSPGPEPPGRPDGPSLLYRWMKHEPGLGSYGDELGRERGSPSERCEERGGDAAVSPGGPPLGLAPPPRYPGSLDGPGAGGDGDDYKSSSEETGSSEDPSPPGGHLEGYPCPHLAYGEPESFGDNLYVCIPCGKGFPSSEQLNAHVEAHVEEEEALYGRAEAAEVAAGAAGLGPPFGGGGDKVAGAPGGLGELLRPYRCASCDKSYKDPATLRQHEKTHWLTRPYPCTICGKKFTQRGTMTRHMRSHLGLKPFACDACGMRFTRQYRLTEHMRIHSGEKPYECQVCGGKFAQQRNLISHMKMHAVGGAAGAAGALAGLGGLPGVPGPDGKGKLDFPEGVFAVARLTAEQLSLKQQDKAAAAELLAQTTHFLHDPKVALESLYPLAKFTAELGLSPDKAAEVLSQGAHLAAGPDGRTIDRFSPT
The assay is described as follows: co-IP; whole-cell extracts of MKN45 and HGC27 cells in IP/Western lysis solution; incubated with HIC1/Jab1 antibody or IgG at 4 °C overnight, then protein A/G agarose beads for 2 h; western blot. In general terms: In western blotting, separated proteins are transferred to a membrane and probed.

Protein sequences, listed by entry. Tags and fused reporters are not part of them.
UniProt Q92905: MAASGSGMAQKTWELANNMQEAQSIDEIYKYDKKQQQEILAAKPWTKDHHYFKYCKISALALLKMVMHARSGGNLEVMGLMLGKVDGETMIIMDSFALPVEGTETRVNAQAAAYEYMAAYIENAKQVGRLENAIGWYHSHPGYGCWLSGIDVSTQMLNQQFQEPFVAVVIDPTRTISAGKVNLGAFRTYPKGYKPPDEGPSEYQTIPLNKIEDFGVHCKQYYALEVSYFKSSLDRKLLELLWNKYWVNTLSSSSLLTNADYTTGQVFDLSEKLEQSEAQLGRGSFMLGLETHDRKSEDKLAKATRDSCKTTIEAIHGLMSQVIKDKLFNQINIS

These are yes or no findings as the source states them, for the method shown. In cells and extracts the contact can be indirect. Some results given as binding are weak or reduced against the parent protein; the word gives no strength.

As to “c-Jun activation domain-binding protein 1 (Jab1) (from UniProt Q92905 1-334)”, the binding result is listed as “binds”.
